Results as given in patent publication US6613742B1, “Chemokine-derived synthetic peptides” (Thomas Jefferson University, priority 1999, dated 2003).
These are yes or no findings as the source states them, for the method shown. Some results given as binding are weak or reduced against the parent protein; the word gives no strength.

By UniProt entry, the sequences of proteins in these tests, tags left out.
UniProt P61073: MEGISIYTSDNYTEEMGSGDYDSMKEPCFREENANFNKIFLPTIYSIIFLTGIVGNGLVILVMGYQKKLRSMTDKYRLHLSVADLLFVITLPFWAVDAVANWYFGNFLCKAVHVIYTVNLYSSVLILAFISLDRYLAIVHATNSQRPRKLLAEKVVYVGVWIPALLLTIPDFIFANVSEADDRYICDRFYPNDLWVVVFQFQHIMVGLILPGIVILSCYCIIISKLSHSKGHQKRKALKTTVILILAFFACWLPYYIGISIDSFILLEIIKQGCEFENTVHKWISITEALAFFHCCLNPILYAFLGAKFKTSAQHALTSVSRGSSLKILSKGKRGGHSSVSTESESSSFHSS

B1: Peptide SEQ ID NO:6 (SDF-1 amino acids 5-14 and 55-67 linked by (Gly)2) (peptide)
peptide: LSYRCPCRFFGGLKWIQEYLEKALN
B2: Peptide SEQ ID NO:4 (SDF-1 amino acids 5-14 and 55-67 linked by (Gly)4) (peptide)
peptide: LSYRCPCRFFGGGGLKWIQEYLEKALN
B3: Peptide SEQ ID NO:7 (SDF-1 amino acids 5-14 and 55-67 linked by (Lys)4) (peptide)
peptide: LSYRCPCRFFKKKKLKWIQEYLEKALN

target: CXC chemokine receptor 4 (UniProt P61073); experiment: FACS; blocking of FITC-12D5 binding to CXCR4-transfected 293 cells

binding, binds:
B1
B2
B3
